Laboratory results taken from the odorant receptor screen of Mainland et al. (2015).
“And” between values parts separate entries of the source, which are not always exact repeats. Equal entries are not always repeated. The list shows a part of the results. Single wells; the ratio to wells without odorant was worked out here, and repeats agree poorly.

Chains of the proteins cited; added tags and fusions are not shown. Chains listed by the source or under a name are the forms on record and can include a tag or linker.
OR11H13, as listed by the source: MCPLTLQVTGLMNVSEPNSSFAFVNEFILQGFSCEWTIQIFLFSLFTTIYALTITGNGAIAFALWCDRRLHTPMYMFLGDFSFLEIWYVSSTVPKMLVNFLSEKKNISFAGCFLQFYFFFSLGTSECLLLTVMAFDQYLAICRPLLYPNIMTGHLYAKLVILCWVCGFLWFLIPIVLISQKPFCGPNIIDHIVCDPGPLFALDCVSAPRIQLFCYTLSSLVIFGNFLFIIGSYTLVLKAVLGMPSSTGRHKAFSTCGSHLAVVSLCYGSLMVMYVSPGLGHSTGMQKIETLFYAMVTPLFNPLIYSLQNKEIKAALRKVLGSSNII

Assays:
Test in all cases: odorant receptor activation (CRE luciferase / Renilla) (fold of no-odor wells); higher = more activation
Conditions in all cases: 100 µM
OR11H13 clone 1435 = test system: OR11H13 clone 1435
OR11H4 clone 1263 = test system: OR11H4 clone 1263
OR11H4 clone 1423 = test system: OR11H4 clone 1423
OR11H6 clone 1275 = test system: OR11H6 clone 1275
[1] = test system: OR11L1 G108S/F117L/A142T/R171P clone 1031
[2] = test system: OR12D2 V47F/L56P/S104F/F113L/L120R/V159I clone 1373
OR12D2 clone 1075 = test system: OR12D2 clone 1075
OR12D3 clone 1071 = test system: OR12D3 clone 1071
OR13A1 clone 1107 = test system: OR13A1 clone 1107
OR13C2 clone 1717 = test system: OR13C2 clone 1717
OR13C3 G2C clone 1339 = test system: OR13C3 G2C clone 1339
OR13C3 clone 1390 = test system: OR13C3 clone 1390
OR13C4 clone 1094 = test system: OR13C4 clone 1094
[3] = test system: OR13C5 S18F/L69M/P79S/L86V/N128S/M258T clone 1477
OR13C7 Indel clone 1100 = test system: OR13C7 Indel clone 1100
OR13C8 clone 1095 = test system: OR13C8 clone 1095
OR13C9 F197L clone 1096 = test system: OR13C9 F197L clone 1096
OR13D1 clone 1338 = test system: OR13D1 clone 1338
OR13D1 clone 1484 = test system: OR13D1 clone 1484
[4] = test system: OR13F1 F18S/M101V/V134I/I270T clone 1097

SMILES | odorant receptor activation (OR11H13 clone 1435) | odorant receptor activation (OR11H4 clone 1263) | odorant receptor activation (OR11H4 clone 1423) | odorant receptor activation (OR11H6 clone 1275) | odorant receptor activation [1] | odorant receptor activation [2] | odorant receptor activation (OR12D2 clone 1075) | odorant receptor activation (OR12D3 clone 1071) | odorant receptor activation (OR13A1 clone 1107) | odorant receptor activation (OR13C2 clone 1717) | odorant receptor activation (OR13C3 G2C clone 1339) | odorant receptor activation (OR13C3 clone 1390) | odorant receptor activation (OR13C4 clone 1094) | odorant receptor activation [3] | odorant receptor activation (OR13C7 Indel clone 1100) | odorant receptor activation (OR13C8 clone 1095) | odorant receptor activation (OR13C9 F197L clone 1096) | odorant receptor activation (OR13D1 clone 1338) | odorant receptor activation (OR13D1 clone 1484) | odorant receptor activation [4]
CCCCCCCCCC=O [decyl aldehyde] | 1.85 | 1.25 | 1.6 | 1.08 | 1.32 | 1.58 | 1.04 | 1.05 | 1.06 | 0.965 | 1.52 | 1.38 | 0.888 | 1.14 | 0.973 | 1.21 | 1.13 | 1.41 | 1.19 | 1.01
CCCCCCCC=O [octyl aldehyde] | 0.957 | 1.05 | 0.761 | 1.24 | 1.25 | 0.905 | 1.58 | 1.33 | 1.58 | 0.901 | 0.983 | 0.621 | 1.09 | 1.01 | 1.45 | 1.15 | 1.26 | 1.21 | 0.887 | 1.17
CC(=O)OCC=C(C)CCC=C(C)C [geranyl acetate] | 0.859 | 1.14 and 1.67 | 1.24 | 0.882 and 1.14 | 1.06 | 1.04 | 2.19 | 1.04 | 2.02 | 1.4 | 1.5 and 1.31 | 1.15 | 1.38 | 0.78 and 1.2 | 0.622 | 2.11 | 2.12 | 2.6 and 0.909 | 1.27 and 1.42 | 4.5
CCCCCCOC(=O)CCC [hexyl butyrate] | 0.682 | 1.29 and 1.32 | 0.953 | 0.814 and 0.834 | 0.406 | 0.816 | 0.873 | 0.711 | 1.1 | 1.11 | 1.24 and 0.827 | 0.817 | 1.2 | 0.93 and 0.903 | 0.453 | 1.33 | 0.845 | 1.9 and 0.64 | 1.19 and 1 | 1.8
c1cnccn1 [pyrazine] | 1.38 | 0.831 | 0.992 | 0.73 | 0.697 | 0.965 | 1.12 | 0.933 | 1.11 | 0.899 | 0.735 | 1.01 | 0.975 | 0.743 | 0.839 | 0.914 | 1.15 | 0.851 | 0.569 | 1.19
COc1ccccc1O [guaiacol] | 0.64 | 0.946 and 1.27 | 0.85 | 0.607 and 0.849 | 0.638 | 0.925 | 1.75 | 0.693 | 2.11 | 0.904 | 0.927 and 0.87 | 0.801 | 1.7 | 0.889 and 0.927 | 0.62 | 1.76 | 1.4 | 1.3 and 0.797 | 1.38 and 1.36 | 2.14
C=CCc1ccc(OC)c(OC)c1 [eugenol methyl ether] | 1.33 | 1.54 | 1.95 | 1.52 | 1.91 | 1.55 | 1.38 | 1.29 | 1.83 | 1.05 | 1.7 | 1.44 | 1.17 | 1.17 | 1.45 | 1.4 | 1.43 | 1.4 | 1.93 | 1.22
COC(=O)c1ccccc1O [methyl salicylate] | 1.65 | 0.938 | 1.25 | 0.826 | 1.05 | 1.05 | 1.09 | 1.44 | 1.27 | 0.745 | 1.07 | 0.797 | 0.922 | 0.98 | 0.932 | 1.21 | 1.06 | 1.14 | 0.854 | 1.02
CCCCCCCCC=O [nonyl aldehyde] | 1.21 | 0.981 | 1.01 | 1 | 1.04 | 0.916 | 0.975 | 1.26 | 1.27 | 0.716 | 1.06 | 0.745 | 0.708 | 1.13 | 1.06 | 1.19 | 1.2 | 0.937 | 1.07 | 1.04
CC12CCC(CC1)C(C)(C)O2 [cineole] | 0.158 | 0.954 | 0.125 | 1 | 0.864 | 0.186 | 0.905 | 0.606 | 1.07 | 1 | 0.977 | 0.208 | 0.871 | 0.684 | 1.04 | 0.981 | 0.882 | 0.986 | 0.871 | 0.853
CC12CCC(C1)C(C)(C)C2=O (stereo not given) [fenchone] | 1.01 | 0.966 | 0.985 | 0.933 | 1.1 | 0.968 | 0.819 | 0.949 | 1.09 | 1.17 | 0.962 | 0.837 | 0.792 | 0.901 | 0.814 | 0.853 | 1.04 | 0.874 | 1.31 | 0.802
CC(=O)OC1CC2CCC1(C)C2(C)C (stereo not given) [isobornyl acetate] | 0.783 | 1.31 and 1.22 | 0.826 | 1.2 and 0.996 | 0.362 | 0.89 | 0.887 | 0.598 | 1.47 | 1.48 | 1.33 and 0.85 | 0.721 | 0.912 | 0.809 and 1.26 | 0.877 | 1.9 | 1 | 1.6 and 0.642 | 1.04 and 1.18 | 0.992
CCC1(O)C2(C)CCC(C2)C1(C)C (stereo not given) [2-ethylfenchol] | 1.25 | 0.836 | 0.747 | 0.819 | 4.71 | 0.212 | 2.73 | 4.82 | 14.2 | 0.906 | 0.991 | 0.932 | 21.8 | 1.22 | 13.5 | 2.42 | 24.7 | 0.87 | 0.793 | 2.17
C=CCc1ccc(O)c(OC)c1 [eugenol] | 1.58 and 1.38 | 1.91 and 1.3 | 1.49 and 1.45 | 2.6 and 1.3 | 1.52 and 1.27 | 1.22 and 1.37 | 1.24 and 1.2 | 0.747 and 1.2 | 1.29 and 1.41 | 1.06 | 2.91 and 1.42 | 1.49 and 1.48 | 0.698 and 1.17 | 0.982 and 1.09 and 0.934 | 0.743 and 1.4 | 2.51 and 1.48 | 0.941 and 1.39 | 1.2 and 1.23 | 0.918 and 1.07 and 1.85 | 1.77 and 1.17

A section from the list above:
SMILES | odorant receptor activation (OR11H13 clone 1435) | odorant receptor activation (OR11H4 clone 1263) | odorant receptor activation (OR11H4 clone 1423) | odorant receptor activation (OR11H6 clone 1275) | odorant receptor activation [1] | odorant receptor activation [2] | odorant receptor activation (OR12D2 clone 1075) | odorant receptor activation (OR12D3 clone 1071) | odorant receptor activation (OR13A1 clone 1107) | odorant receptor activation (OR13C2 clone 1717) | odorant receptor activation (OR13C3 G2C clone 1339) | odorant receptor activation (OR13C3 clone 1390) | odorant receptor activation (OR13C4 clone 1094) | odorant receptor activation [3] | odorant receptor activation (OR13C7 Indel clone 1100) | odorant receptor activation (OR13C8 clone 1095) | odorant receptor activation (OR13C9 F197L clone 1096) | odorant receptor activation (OR13D1 clone 1338) | odorant receptor activation (OR13D1 clone 1484) | odorant receptor activation [4]
CCCCCCCCCC=O [decyl aldehyde] | 1.85 | 1.25 | 1.6 | 1.08 | 1.32 | 1.58 | 1.04 | 1.05 | 1.06 | 0.965 | 1.52 | 1.38 | 0.888 | 1.14 | 0.973 | 1.21 | 1.13 | 1.41 | 1.19 | 1.01
CCCCCCCC=O [octyl aldehyde] | 0.957 | 1.05 | 0.761 | 1.24 | 1.25 | 0.905 | 1.58 | 1.33 | 1.58 | 0.901 | 0.983 | 0.621 | 1.09 | 1.01 | 1.45 | 1.15 | 1.26 | 1.21 | 0.887 | 1.17
